Measurements: the supplement of paper PMC5407854, “Inhibitor of ppGalNAc-T3-mediated O-glycosylation blocks cancer cell invasiveness and lowers FGF23 levels” (eLife, 2017)
Some of the results follow. Most entries show no effect beyond the scatter of the controls.

What was measured:
ppGalNAc-T3 sensor = assay: T3 sensor activation Q score (MG/GFP ratio z-score vs DMSO controls) (SD units); higher = more sensor activation (inhibition of ppGalNAc-T3 glycosylation); details: HEK293 sensor cells; 10 µM; 6 h
Description: (§1)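 Cells were treated with compound at 10 uM for 6 h, then MG/GFP ratio was read by flow cytometry (10,000 cells per well, duplicate wells). Q = (R - R_neg)/SD_neg relative to DMSO vehicle controls; the signal rises when the glycosyltransferase is inhibited.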

ppGalNAc-T2 sensor = assay: T2 sensor activation Q score (MG/GFP ratio z-score vs DMSO controls) (SD units); higher = more sensor activation (inhibition of ppGalNAc-T2 glycosylation); details: HEK293 sensor cells; 10 µM; 6 h
Description: as §1

Compound | T3 sensor activation Q score (ppGalNAc-T3 sensor) | T2 sensor activation Q score (ppGalNAc-T2 sensor)
O=C1CN(C(=O)c2ccccc2)C(=O)CN1C(=O)c1ccccc1 | -0.03 | 0.86
Cc1cc(C)c2c(N)c(C(=O)c3ccc(F)cc3)sc2n1 | -0.33 | -0.545
CC(C)(C)S(=O)(=O)c1cccc(S(=O)(=O)C(C)(C)C)c1 | 0.05 | -1.07
CC(C)(C)C(=O)Nc1ccc(Sc2ccc([N+](=O)[O-])cc2)cc1 | -0.12 | -0.74
COc1cc(N)c(C)cc1NC(C)=O | -0.01 | -0.28
Cc1cc(C(C)(C)C)ccc1OCCCn1ccnc1 | -0.46 | 0.83
NNc1ncnc2sc3c(c12)CCCC3 | 0.8 | -0.335
O=C(Nc1ccc(-c2ccc([N+](=O)[O-])cc2)cc1)c1ccco1 | 0.755 | -0.855
COc1ccccc1CN1CCCCCC1 | 0.415 | -0.05
CC1(C)CC(NC(=O)N2c3ccccc3Sc3ccccc32)CC(C)(C)N1 | 0.275 | -0.925
O=S(=O)(Nc1cccc(O)c1)c1ccc(Cl)cc1 | 0.17 | 0.22
COc1ccc(CN2CCN(c3cccc(C)c3C)CC2)c(OC)c1OC | -0.305 | 1.11
O=[N+]([O-])c1ccc(-n2ccc3ccccc32)cc1 | -0.495 | 0.52
Cc1ccc(NC(=O)NC(C)(C)C)cc1 | 1.12 | -0.81
COc1ccccc1C(=O)Nc1sc2c(c1C(N)=O)CCCC2 | -1.13 | -1.29
CCN(CC)CCN1C(=O)C(O)=C(C(C)=O)C1c1ccc(Br)cc1 (configuration not stated) | 0.115 | -0.085
O=C1c2ccccc2-c2onc3c(Br)cc(O)c1c23 | 0.455 | -0.17
COc1ccc(C2C3C(=O)N(Cc4ccccc4)C(=O)C3ON2c2ccccc2)cc1 (configuration not stated) | -0.465 | -0.795
Clc1ccccc1N1CCN(Cc2ccsc2)CC1 | 0.385 | 0.22

Given with each value named: part of the list above
CC(C)(C)S(=O)(=O)c1cccc(S(=O)(=O)C(C)(C)C)c1
  T3 sensor activation Q score (ppGalNAc-T3 sensor): 0.05; T2 sensor activation Q score (ppGalNAc-T2 sensor): -1.07
COc1ccc(CN2CCN(c3cccc(C)c3C)CC2)c(OC)c1OC
  T3 sensor activation Q score (ppGalNAc-T3 sensor): -0.305; T2 sensor activation Q score (ppGalNAc-T2 sensor): 1.11
Clc1ccccc1N1CCN(Cc2ccsc2)CC1
  T3 sensor activation Q score (ppGalNAc-T3 sensor): 0.385; T2 sensor activation Q score (ppGalNAc-T2 sensor): 0.22

Next entries:

Compound | T3 sensor activation Q score (ppGalNAc-T3 sensor) | T2 sensor activation Q score (ppGalNAc-T2 sensor)
CC(Oc1ccc(Cl)cc1)C(=O)NN (configuration not stated) | 0.165 | -0.36
Cc1nn(C(=O)c2ccccc2)c2c1C(=O)CC(C)(C)C2 | 0.405 | -1.01
O=C(O)CCC(=O)Nc1ccc2c(c1)oc1ccccc12 | 0.755 | 0.205
O=S(=O)(Cc1ccccc1)c1nc2ccccc2[nH]1 | 1.41 | 0.475
CN(C)CC(O)Cn1c2ccccc2c2ccccc21 (configuration not stated) | 1.8 | -1.4
O=C(Nc1ccc(Cl)c(Cl)c1)[C@@H]1C[C@@H]1c1ccccc1 | 0.11 | 0.83
O=C1CC(N2CCN(c3ncccn3)CC2)C(=O)N1c1cccc(Cl)c1 (configuration not stated) | -0.44 | 0.155
Cc1cccc(NC(=O)CCC(=O)O)c1 | -0.065 | 0.305
Nc1nc(-c2ccco2)nc(-c2ccco2)n1 | 0.55 | -0.35
Cc1ccc(C(=O)/C=C(\c2ccccc2)N2CCCCC2)cc1 | -0.545 | 0.985
O=c1[nH]c(CSCCO)nc2c1C1(CCCCC1)Cc1ccccc1-2 | 0.49 | 0.28
Cc1cc(C)cc(NS(=O)(=O)c2ccc(F)cc2)c1 | 0.635 | -0.825
O=C(Nc1ccc(Cl)cc1)c1ccc([N+](=O)[O-])o1 | -0.815 | -1.14
NC(=O)C(=O)Nc1cccc(Cl)c1Cl | 1.09 | -0.8
Cc1cccc(C)c1NC(=O)c1ccco1 | -0.035 | 0.71
c1ccc(-c2ccc(CN3CCSCC3)cc2)cc1 | 0 | -0.03
O=C(NCCCCc1ccccc1)c1ccc(Cl)cc1Cl | 0.395 | -0.57
Cc1occc1C(=O)Nc1ccc(F)cc1F | -0.925 | -0.305
CC(=O)C1=C(O)C(=O)N(CCO)C1c1ccccc1F (configuration not stated) | 0.805 | -0.84

Compound | T3 sensor activation Q score (ppGalNAc-T3 sensor) | T2 sensor activation Q score (ppGalNAc-T2 sensor)
O=C(NCc1ccncc1)c1ccc(Br)cc1 | 1.49 | 0.225
O=C(O)C#CCN1C(=O)c2ccccc2C1=O | 0.35 | -1.18
Cc1ccc(C(=O)Nc2ccc(C(C)C)cc2)cc1 | 0.125 | -1.04
COc1ccccc1CNC(=O)c1ccc(C(C)(C)C)cc1 | 0.955 | -1.03
O=[N+]([O-])c1ccc(CN2CCN(c3ccccc3Cl)CC2)o1 | -0.255 | 0.895
O=C(c1cccc(S(=O)(=O)N2CCCCC2)c1)N1CCCCC1 | -0.095 | 2.02
Cc1nc2ccc3[nH]snc3c2n1 | 0.12 | -0.29
CN(C)c1nc2ccc(OCCN3CCCCC3)cc2s1 | -0.46 | 1.18
O=C1c2ccccc2C(=O)N1c1ncn[nH]1 | -0.37 | -0.365
NC(=O)CN1CC(=O)NC(=O)C1 | -0.24 | 1.15
CC1=NN(c2ccccc2)C(=O)C1C(=O)c1ccc(F)cc1 (configuration not stated) | -0.375 | 0.825
O=C(Nc1cccc(Cl)c1)N1CCCCCC1 | 0.165 | 2.41
O=C(Nc1cccc(F)c1)C12CC3CC(CC(C3)C1)C2 | -0.825 | 0.27
COc1ccc(CN2CCN(c3ccc([N+](=O)[O-])cc3)CC2)cc1O | 0.65 | -0.04
CCCSc1nnc(-c2ccccc2N)c(=O)[nH]1 | -0.255 | 0.435
CCOC(=O)Nc1nnc(-c2ccc(C)cc2)s1 | 0.005 | -0.34
Cc1cccc(OCCCN2CCOCC2)c1 | -0.335 | 0.32
Cc1cccc(CN2CCN(c3ccccn3)CC2)c1 | -0.245 | -0.21
